Source: the supplement of paper PMC12819154, “High-throughput peptide-centric local stability assay extends protein–ligand identification to membrane proteins, tissues and bacteria” (Nature Structural & Molecular Biology, 2025)
The list shows a part of the results. Most entries show no effect beyond the scatter of the controls.

The chains behind the UniProt entries cited, without tags or fusion partners. Where a name states a change or a piece, a line headed by the entry shows the natural chain unless it says otherwise.
UniProt O60664: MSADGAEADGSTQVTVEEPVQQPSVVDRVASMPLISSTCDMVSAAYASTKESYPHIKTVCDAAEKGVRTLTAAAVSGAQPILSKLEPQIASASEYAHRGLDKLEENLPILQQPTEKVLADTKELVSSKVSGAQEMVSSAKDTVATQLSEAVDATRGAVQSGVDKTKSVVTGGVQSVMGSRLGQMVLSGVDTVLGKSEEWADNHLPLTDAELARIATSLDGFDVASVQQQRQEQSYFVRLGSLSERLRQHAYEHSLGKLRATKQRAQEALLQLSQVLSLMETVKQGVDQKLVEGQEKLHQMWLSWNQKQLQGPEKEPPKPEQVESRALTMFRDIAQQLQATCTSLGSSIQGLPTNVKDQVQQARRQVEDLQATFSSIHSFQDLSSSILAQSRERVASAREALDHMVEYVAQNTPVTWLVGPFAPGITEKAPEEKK
UniProt O60282: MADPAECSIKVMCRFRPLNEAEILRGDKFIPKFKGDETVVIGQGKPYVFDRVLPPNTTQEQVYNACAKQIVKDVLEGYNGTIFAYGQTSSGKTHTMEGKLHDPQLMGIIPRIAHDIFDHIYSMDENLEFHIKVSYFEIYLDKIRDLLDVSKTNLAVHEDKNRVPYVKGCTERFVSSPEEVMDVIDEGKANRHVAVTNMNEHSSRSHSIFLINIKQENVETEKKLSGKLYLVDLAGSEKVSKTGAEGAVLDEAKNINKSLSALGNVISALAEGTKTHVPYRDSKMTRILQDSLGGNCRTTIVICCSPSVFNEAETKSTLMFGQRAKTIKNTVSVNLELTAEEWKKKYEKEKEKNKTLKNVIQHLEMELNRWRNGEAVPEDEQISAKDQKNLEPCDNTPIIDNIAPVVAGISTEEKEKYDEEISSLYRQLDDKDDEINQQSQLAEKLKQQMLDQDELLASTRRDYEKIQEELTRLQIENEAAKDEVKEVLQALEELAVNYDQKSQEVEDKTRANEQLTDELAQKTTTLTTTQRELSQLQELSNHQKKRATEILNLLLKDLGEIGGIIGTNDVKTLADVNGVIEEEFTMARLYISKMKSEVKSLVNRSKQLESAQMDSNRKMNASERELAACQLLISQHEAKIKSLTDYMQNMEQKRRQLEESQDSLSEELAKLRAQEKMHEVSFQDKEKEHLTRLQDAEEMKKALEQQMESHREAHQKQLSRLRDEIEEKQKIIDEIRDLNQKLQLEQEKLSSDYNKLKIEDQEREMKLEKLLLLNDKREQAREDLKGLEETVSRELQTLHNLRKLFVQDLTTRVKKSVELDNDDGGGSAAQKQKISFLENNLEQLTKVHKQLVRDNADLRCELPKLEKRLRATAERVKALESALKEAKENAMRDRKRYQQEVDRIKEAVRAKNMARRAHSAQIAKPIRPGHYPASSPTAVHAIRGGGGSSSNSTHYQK
UniProt O43182: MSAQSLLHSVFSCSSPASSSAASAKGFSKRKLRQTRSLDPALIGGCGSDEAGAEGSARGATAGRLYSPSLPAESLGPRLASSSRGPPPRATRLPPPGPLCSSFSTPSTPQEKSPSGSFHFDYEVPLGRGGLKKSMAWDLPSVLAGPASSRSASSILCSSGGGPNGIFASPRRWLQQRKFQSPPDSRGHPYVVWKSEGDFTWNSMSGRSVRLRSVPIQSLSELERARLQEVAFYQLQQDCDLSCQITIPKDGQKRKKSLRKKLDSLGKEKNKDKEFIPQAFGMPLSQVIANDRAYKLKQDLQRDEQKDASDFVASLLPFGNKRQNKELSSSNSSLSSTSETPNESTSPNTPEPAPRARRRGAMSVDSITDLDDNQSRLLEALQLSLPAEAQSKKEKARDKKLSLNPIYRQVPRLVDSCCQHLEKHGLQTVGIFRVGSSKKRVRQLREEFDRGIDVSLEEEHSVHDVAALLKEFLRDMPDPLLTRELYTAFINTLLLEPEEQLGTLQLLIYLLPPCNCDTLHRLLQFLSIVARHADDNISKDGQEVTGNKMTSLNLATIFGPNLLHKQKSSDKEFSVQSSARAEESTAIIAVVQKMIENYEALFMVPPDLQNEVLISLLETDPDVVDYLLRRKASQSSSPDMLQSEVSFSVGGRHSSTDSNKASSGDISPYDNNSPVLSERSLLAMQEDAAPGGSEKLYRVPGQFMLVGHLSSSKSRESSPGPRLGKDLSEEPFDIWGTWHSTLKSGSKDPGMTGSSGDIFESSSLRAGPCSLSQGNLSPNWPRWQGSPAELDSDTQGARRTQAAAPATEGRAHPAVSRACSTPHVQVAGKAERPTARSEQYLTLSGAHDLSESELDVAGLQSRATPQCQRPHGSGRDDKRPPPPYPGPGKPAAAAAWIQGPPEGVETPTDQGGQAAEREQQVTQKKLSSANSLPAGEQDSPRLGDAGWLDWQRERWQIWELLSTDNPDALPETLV
UniProt O75072: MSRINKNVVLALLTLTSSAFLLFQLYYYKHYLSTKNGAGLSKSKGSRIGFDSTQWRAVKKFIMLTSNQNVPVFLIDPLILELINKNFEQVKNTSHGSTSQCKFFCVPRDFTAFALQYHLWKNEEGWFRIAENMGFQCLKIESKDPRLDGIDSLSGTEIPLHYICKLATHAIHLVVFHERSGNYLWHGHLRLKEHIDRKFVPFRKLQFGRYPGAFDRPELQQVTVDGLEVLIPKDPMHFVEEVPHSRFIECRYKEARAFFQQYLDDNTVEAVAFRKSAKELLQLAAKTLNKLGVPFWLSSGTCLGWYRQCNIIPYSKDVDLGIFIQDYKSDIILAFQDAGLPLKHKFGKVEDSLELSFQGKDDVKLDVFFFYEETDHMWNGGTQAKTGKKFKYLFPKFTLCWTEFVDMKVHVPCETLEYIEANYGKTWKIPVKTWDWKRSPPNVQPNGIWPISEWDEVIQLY
UniProt O43715: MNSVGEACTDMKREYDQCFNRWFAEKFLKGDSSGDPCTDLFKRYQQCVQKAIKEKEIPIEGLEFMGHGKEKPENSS
UniProt O60315: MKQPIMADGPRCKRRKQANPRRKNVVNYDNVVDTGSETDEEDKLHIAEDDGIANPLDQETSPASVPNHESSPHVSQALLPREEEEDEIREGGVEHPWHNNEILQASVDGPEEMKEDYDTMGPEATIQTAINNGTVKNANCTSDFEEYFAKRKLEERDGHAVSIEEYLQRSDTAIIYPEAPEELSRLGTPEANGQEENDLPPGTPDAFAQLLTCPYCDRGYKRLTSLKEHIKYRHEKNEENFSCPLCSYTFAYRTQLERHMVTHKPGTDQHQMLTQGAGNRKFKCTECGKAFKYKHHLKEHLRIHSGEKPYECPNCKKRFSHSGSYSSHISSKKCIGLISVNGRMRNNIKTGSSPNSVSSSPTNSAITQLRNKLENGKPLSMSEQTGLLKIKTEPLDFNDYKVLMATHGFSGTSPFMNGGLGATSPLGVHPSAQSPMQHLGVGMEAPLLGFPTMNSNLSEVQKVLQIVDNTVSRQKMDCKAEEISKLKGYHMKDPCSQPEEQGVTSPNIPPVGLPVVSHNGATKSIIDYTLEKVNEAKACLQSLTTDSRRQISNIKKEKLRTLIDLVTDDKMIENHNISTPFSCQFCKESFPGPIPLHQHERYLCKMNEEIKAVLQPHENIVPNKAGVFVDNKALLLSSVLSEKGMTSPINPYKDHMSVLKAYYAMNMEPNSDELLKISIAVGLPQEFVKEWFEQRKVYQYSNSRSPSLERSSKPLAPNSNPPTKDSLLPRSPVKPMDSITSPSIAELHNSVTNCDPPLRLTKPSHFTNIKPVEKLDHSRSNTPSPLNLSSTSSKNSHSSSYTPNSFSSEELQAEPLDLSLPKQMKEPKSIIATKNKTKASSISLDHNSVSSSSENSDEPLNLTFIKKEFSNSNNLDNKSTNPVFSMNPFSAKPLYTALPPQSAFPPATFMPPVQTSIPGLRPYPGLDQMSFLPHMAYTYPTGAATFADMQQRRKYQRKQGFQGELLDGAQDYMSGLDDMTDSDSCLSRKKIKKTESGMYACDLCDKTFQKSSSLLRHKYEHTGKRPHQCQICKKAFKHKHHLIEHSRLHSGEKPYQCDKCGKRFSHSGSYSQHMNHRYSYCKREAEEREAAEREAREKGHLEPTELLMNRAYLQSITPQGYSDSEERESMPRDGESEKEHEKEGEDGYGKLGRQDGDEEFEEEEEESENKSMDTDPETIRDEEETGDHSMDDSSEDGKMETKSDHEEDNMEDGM
UniProt O43303: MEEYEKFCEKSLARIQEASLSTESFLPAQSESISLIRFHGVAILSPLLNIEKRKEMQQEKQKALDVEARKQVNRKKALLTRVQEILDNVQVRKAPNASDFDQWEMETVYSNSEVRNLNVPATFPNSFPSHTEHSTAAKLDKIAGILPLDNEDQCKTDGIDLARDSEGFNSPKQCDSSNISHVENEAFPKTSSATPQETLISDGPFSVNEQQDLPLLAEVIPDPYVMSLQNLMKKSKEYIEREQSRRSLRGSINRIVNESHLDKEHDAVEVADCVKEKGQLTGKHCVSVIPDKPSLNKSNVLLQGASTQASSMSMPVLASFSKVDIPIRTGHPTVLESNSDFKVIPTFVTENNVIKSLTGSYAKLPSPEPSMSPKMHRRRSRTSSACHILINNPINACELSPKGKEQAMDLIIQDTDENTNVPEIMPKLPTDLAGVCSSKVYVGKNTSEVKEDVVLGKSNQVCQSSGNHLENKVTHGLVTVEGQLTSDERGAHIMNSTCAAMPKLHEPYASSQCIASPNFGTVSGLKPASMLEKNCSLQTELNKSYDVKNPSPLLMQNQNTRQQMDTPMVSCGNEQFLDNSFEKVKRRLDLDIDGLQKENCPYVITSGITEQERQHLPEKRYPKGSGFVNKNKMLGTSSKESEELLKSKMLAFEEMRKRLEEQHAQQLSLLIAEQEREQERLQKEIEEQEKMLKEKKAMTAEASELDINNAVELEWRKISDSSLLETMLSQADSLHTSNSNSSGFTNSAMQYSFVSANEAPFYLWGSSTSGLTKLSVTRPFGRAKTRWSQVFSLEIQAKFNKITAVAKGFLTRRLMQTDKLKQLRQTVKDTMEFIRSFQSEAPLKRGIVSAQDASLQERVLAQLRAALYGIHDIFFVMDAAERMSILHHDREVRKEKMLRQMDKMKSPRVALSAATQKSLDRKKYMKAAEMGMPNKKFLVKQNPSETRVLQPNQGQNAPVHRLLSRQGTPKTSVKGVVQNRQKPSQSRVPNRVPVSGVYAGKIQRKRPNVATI
UniProt O60921: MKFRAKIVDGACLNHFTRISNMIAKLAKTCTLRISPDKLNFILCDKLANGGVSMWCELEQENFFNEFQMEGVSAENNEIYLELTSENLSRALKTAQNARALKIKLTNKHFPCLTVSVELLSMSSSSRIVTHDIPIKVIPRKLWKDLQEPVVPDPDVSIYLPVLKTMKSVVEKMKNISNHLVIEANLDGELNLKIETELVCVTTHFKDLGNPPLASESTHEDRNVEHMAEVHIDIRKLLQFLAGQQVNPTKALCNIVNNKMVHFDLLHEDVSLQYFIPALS
UniProt O43847: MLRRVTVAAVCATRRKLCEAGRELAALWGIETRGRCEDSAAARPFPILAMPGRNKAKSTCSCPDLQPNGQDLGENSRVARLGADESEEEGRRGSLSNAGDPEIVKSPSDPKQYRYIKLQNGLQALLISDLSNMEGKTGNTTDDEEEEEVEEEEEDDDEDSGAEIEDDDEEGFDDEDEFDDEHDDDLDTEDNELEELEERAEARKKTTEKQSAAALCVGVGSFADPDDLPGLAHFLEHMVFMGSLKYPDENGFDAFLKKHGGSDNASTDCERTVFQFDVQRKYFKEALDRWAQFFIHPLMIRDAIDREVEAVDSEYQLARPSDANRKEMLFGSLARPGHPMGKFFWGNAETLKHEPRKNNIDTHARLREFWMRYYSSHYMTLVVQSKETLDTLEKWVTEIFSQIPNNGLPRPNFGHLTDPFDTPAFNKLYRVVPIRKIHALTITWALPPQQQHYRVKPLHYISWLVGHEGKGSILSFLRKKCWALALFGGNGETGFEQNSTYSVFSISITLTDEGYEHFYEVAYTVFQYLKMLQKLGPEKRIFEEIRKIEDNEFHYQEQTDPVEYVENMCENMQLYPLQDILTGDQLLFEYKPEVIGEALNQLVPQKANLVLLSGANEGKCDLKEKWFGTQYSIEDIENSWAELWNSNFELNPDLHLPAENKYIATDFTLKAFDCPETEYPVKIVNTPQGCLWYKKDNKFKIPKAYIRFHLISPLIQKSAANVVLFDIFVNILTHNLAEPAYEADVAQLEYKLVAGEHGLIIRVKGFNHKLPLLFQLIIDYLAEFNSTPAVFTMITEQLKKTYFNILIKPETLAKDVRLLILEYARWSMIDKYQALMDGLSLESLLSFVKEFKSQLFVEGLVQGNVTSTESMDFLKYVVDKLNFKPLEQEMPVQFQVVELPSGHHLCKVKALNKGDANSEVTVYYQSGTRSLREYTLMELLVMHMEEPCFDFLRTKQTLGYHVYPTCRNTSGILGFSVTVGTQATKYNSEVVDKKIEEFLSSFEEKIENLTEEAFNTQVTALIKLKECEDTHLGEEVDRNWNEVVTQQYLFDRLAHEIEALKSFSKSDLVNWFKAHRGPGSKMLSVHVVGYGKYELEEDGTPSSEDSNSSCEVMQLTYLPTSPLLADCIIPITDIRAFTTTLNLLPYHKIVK

compound: Cc1nc(Nc2ncc(C(=O)Nc3c(C)cccc3Cl)s2)cc(N2CCN(CCO)CC2)n1 [dasatinib]; assay: log2 fold change of tryptic peptide abundance, ligand vs vehicle (limited proteolysis) (log2 ratio); higher = more trypsin-susceptible (destabilized); settings: ligand concentration: 5 uM; sample: K562 cleared lysate

Row | Target | log2 fold change
1 | UniProt O60664 (peptide sequence: IATSLDGFDVASVQQQR, peptide start residue: 214) | 0.498
2 | UniProt O60282 (peptide sequence: ILQDSLGGNCR, peptide start residue: 285) | -0.209
3 | SYNJ1 (peptide sequence: AQLSVQTSPVPTPDPKR, peptide start residue: 1338) (UniProt O43426) | -0.703
4 | SDC3 (peptide sequence: ALPRPATTQEPDIPER, peptide start residue: 258) (UniProt O75056) | -0.191
5 | AP1G1 (peptide sequence: IEFTFER, peptide start residue: 717) (UniProt O43747) | -0.398
6 | UniProt O43187 (peptide sequence: ETACSSPGSIER, peptide start residue: 241) | -0.399
7 | AKAP8 (peptide sequence: KTSLHVAK, peptide start residue: 517) (UniProt O43823) | -0.357
8 | ARHGAP6 (peptide sequence: HADDNISK, peptide start residue: 532) (UniProt O43182) | 0.299
9 | ZNHIT1 (peptide sequence: LPQFDDDADTGKK, peptide start residue: 55) (UniProt O43257) | -0.219
10 | UniProt O75072 (peptide sequence: NGAGLSK, peptide start residue: 36) | 0.0272
11 | TPD52L2 (peptide sequence: AELTKVEEEIVTLR, peptide start residue: 51) (UniProt O43399) | 0.194
12 | PRPF4 (peptide sequence: CVYTIPAHQNLVTGVK, peptide start residue: 441) (UniProt O43172) | -0.266
13 | GMFG (peptide sequence: YVHDDGR, peptide start residue: 75) (UniProt O60234) | 0.186
14 | NME6 (peptide sequence: HVAPDSIR, peptide start residue: 109) (UniProt O75414) | -0.0302
15 | TRIAP1 (peptide sequence: EYDQCFNR, peptide start residue: 14) (UniProt O43715) | 0.246
16 | RNF113A (peptide sequence: SAKPVGPEDMGATAVYELDTEKER, peptide start residue: 105) (UniProt O15541) | 0.13
17 | ZEB2 (peptide sequence: KVYQYSNSR, peptide start residue: 696) (UniProt O60315) | 0.607
18 | ATP6V1G1 (peptide sequence: LKQAKEEAQAEIEQYR, peptide start residue: 33) (UniProt O75348) | 0.374
19 | UniProt O43303 (peptide sequence: GQLTGKHCVSVIPDKPSLNK, peptide start residue: 278) | -0.205
20 | HUS1 (peptide sequence: IVDGACLNHFTR, peptide start residue: 7) (UniProt O60921) | 0.145
21 | ULK1 (peptide sequence: LHSAPNLSDLHVVRPK, peptide start residue: 554) (UniProt O75385) | -0.462
22 | UniProt O60443 (peptide sequence: CGGIVGIQTK, peptide start residue: 180) | -0.141
23 | N4BP1 (peptide sequence: FSQLPFKVEAK, peptide start residue: 442) (UniProt O75113) | -0.463
24 | UniProt O43847 (peptide sequence: FFWGNAETLKHEPR, peptide start residue: 343) | 1.67
25 | SPAG9 (peptide sequence: HTEMIHNYMEHLER, peptide start residue: 163) (UniProt O60271) | 0.0905
26 | UniProt O75170 (peptide sequence: SYAVSSSVLHGIEPR, peptide start residue: 297) | -0.227
27 | UniProt O43504 (peptide sequence: GTLSDEHAGVISVLAQQAAK, peptide start residue: 35) | -0.0148
28 | PAPSS1 (peptide sequence: TDAETLPALK, peptide start residue: 249) (UniProt O43252) | -0.335
29 | TSC22D2 (peptide sequence: NSLLERENALLK, peptide start residue: 723) (UniProt O75157) | 0.206

Nos. 22–23 from above:
Row | Target | log2 fold change
22 | UniProt O60443 (peptide sequence: CGGIVGIQTK, peptide start residue: 180) | -0.141
23 | N4BP1 (peptide sequence: FSQLPFKVEAK, peptide start residue: 442) (UniProt O75113) | -0.463
